# Data as given in patent US20220074941A1, “HSP90 COMBINATION THERAPY” (Sloan-Kettering Institute for Cancer Research, priority 2011, published 2022).
# B1: THUMP domain-containing protein 3 (protein, UniProt Q9BV44 1-507, looked up)
# tRNA …: MCDIEEATNQLLDVNLHENQKSVQVTESDLGSESELLVTIGATVPTGFEQTAADEVREKLGSSCKISRDRGKIYFVISVESLAQVHCLRSVDNLFVVVQEFQDYQFKQTKEEVLKDFEDLAGKLPWSNPLKVWKINASFKKKKAKRKKINQNSSKEKINNGQEVKIDQRNVKKEFTSHALDSHILDYYENPAIKEDVSTLIGDDLASCKDETDESSKEETEPQVLKFRVTCNRAGEKHCFTSNEAARDFGGAVQDYFKWKADMTNFDVEVLLNIHDNEVIVGIALTEESLHRRNITHFGPTTLRSTLAYGMLRLCDPLPYDIIVDPMCGTGAIPIEGATEWSDCFHIAGDNNPLAVNRAANNIASLLTKSQIKEGKPSWGLPIDAVQWDICNLPLRTGSVDIIVTDLPFGKRMGSKKRNWNLYPACLREMSRVCTPTTGRAVLLTQDTKCFTKALSGMRHVWRKVDTVWVNVGGLRAAVYVLIRTPQAFVHPSEQDGERGTLWQCKE
# B2: Histone acetyltransferase type B catalytic subunit; HAT1 (protein, UniProt O14929 2-419, looked up)
# Histone acetyltransferase …: AGFGAMEKFLVEYKSAVEKKLAEYKCNTNTAIELKLVRFPEDLENDIRTFFPEYTHQLFGDDETAFGYKGLKILLYYIAGSLSTMFRVEYASKVDENFDCVEADDVEGKIRQIIPPGFCTNTNDFLSLLEKEVDFKPFGTLLHTYSVLSPTGGENFTFQIYKADMTCRGFREYHERLQTFLMWFIETASFIDVDDERWHYFLVFEKYNKDGATLFATVGYMTVYNYYVYPDKTRPRVSQMLILTPFQGQGHGAQLLETVHRYYTEFPTVLDITAEDPSKSYVKLRDFVLVKLCQDLPCFSREKLMQGFNEDMVIEAQQKFKINKQHARRVYEILRLLVTDMSDAEQYRSYRLDIKRRLISPYKKKQRDLAKMRKCLRPEELTNQMNQIEISMQHEQLEESFQELVEDYRRVIERLAQE
# B3: N-acetyltransferase 10; NAT10 (protein, UniProt Q9H0A0 1-1025, looked up)
# RNA cytidine acetyltransferase: MHRKKVDNRIRILIENGVAERQRSLFVVVGDRGKDQVVILHHMLSKATVKARPSVLWCYKKELGFSSHRKKRMRQLQKKIKNGTLNIKQDDPFELFIAATNIRYCYYNETHKILGNTFGMCVLQDFEALTPNLLARTVETVEGGGLVVILLRTMNSLKQLYTVTMDVHSRYRTEAHQDVVGRFNERFILSLASCKKCLVIDDQLNILPISSHVATMEALPPQTPDESLGPSDLELRELKESLQDTQPVGVLVDCCKTLDQAKAVLKFIEGISEKTLRSTVALTAARGRGKSAALGLAIAGAVAFGYSNIFVTSPSPDNLHTLFEFVFKGFDALQYQEHLDYEIIQSLNPEFNKAVIRVNVFREHRQTIQYIHPADAVKLGQAELVVIDEAAAIPLPLVKSLLGPYLVFMASTINGYEGTGRSLSLKLIQQLRQQSAQSQVSTTAENKTTTTARLASARTLYEVSLQESIRYAPGDAVEKWLNDLLCLDCLNITRIVSGCPLPEACELYYVNRDTLFCYHKASEVFLQRLMALYVASHYKNSPNDLQMLSDAPAHHLFCLLPPVPPTQNALPEVLAVIQVCLEGEISRQSILNSLSRGKKASGDLIPWTVSEQFQDPDFGGLSGGRVVRIAVHPDYQGMGYGSRALQLLQMYYEGRFPCLEEKVLETPQEIHTVSSEAVSLLEEVITPRKDLPPLLLKLNERPAERLDYLGVSYGLTPRLLKFWKRAGFVPVYLRQTPNDLTGEHSCIMLKTLTDEDEADQGGWLAAFWKDFRRRFLALLSYQFSTFSPSLALNIIQNRNMGKPAQPALSREELEALFLPYDLKRLEMYSRNMVDYHLIMDMIPAISRIYFLNQLGDLALSAAQSALLLGIGLQHKSVDQLEKEIELPSGQLMGLFNRIIRKVVKLFNEVQEKAIEEQMVAAKDVVMEPTMKTLSDDLDEAAKEFQEKHKKEVGKLKSMDLSEYIIRGDDEEWNEVLNKAGPNASIISLKSDKKRKLEAKQEPKQSKKLKNRETKNKKDMKLKRKK
# B4: Cell division control protein 45 homolog (protein, UniProt O75419 1-566, looked up)
# Cell division control protein …: MFVSDFRKEFYEVVQSQRVLLFVASDVDALCACKILQALFQCDHVQYTLVPVSGWQELETAFLEHKEQFHYFILINCGANVDLLDILQPDEDTIFFVCDTHRPVNVVNVYNDTQIKLLIKQDDDLEVPAYEDIFRDEEEDEEHSGNDSDGSEPSEKRTRLEEEIVEQTMRRRQRREWEARRRDILFDYEQYEYHGTSSAMVMFELAWMLSKDLNDMLWWAIVGLTDQWVQDKITQMKYVTDVGVLQRHVSRHNHRNEDEENTLSVDCTRISFEYDLRLVLYQHWSLHDSLCNTSYTAARFKLWSVHGQKRLQEFLADMGLPLKQVKQKFQAMDISLKENLREMIEESANKFGMKDMRVQTFSIHFGFKHKFLASDVVFATMSLMESPEKDGSGTDHFIQALDSLSRSNLDKLYHGLELAKKQLRATQQTIASCLCTNLVISQGPFLYCSLMEGTPDVMLFSRPASLSLLSKHLLKSFVCSTKNRRCKLLPLVMAAPLSMEHGTVTVVGIPPETDSSDRKNFFGRAFEKAAESTSSRMLHNHFDLSVIELKAEDRSKFLDALISLLS
# B5: Serine/threonine-protein kinase SRPK1 (protein, UniProt Q96SB4 1-655, looked up)
# SRSF protein kinase 1: MERKVLALQARKKRTKAKKDKAQRKSETQHRGSAPHSESDLPEQEEEILGSDDDEQEDPNDYCKGGYHLVKIGDLFNGRYHVIRKLGWGHFSTVWLSWDIQGKKFVAMKVVKSAEHYTETALDEIRLLKSVRNSDPNDPNREMVVQLLDDFKISGVNGTHICMVFEVLGHHLLKWIIKSNYQGLPLPCVKKIIQQVLQGLDYLHTKCRIIHTDIKPENILLSVNEQYIRRLAAEATEWQRSGAPPPSGSAVSTAPQPKPADKMSKNKKKKLKKKQKRQAELLEKRMQEIEEMEKESGPGQKRPNKQEESESPVERPLKENPPNKMTQEKLEESSTIGQDQTLMERDTEGGAAEINCNGVIEVINYTQNSNNETLRHKEDLHNANDCDVQNLNQESSFLSSQNGDSSTSQETDSCTPITSEVSDTMVCQSSSTVGQSFSEQHISQLQESIRAEIPCEDEQEQEHNGPLDNKGKSTAGNFLVNPLEPKNAEKLKVKIADLGNACWVHKHFTEDIQTRQYRSLEVLIGSGYNTPADIWSTACMAFELATGDYLFEPHSGEEYTRDEDHIALIIELLGKVPRKLIVAGKYSKEFFTKKGDLKHITKLKPWGLFEVLVEKYEWSQEEAAGFTDFLLPMLELIPEKRATAAECLRHPWLNS
# B6: Mitogen-activated protein kinase 8; JNK1; SAPK1 (protein, UniProt P45983 1-427, looked up)
# Mitogen-activated protein …: MSRSKRDNNFYSVEIGDSTFTVLKRYQNLKPIGSGAQGIVCAAYDAILERNVAIKKLSRPFQNQTHAKRAYRELVLMKCVNHKNIIGLLNVFTPQKSLEEFQDVYIVMELMDANLCQVIQMELDHERMSYLLYQMLCGIKHLHSAGIIHRDLKPSNIVVKSDCTLKILDFGLARTAGTSFMMTPYVVTRYYRAPEVILGMGYKENVDLWSVGCIMGEMVCHKILFPGRDYIDQWNKVIEQLGTPCPEFMKKLQPTVRTYVENRPKYAGYSFEKLFPDVLFPADSEHNKLKASQARDLLSKMLVIDASKRISVDEALQHPYINVWYDPSEAEAPPPKIPDKQLDEREHTIEEWKELIYKEVMDLEERTKNGVIRGQPSPLGAAVINGSQHPSSSSSVNDVSSMSTDPTLASDTDSSLEAAAGPLGCCR
# B7: Serine/threonine-protein phosphatase 2A 55 kDa regulatory subunit B delta isoform (protein, UniProt Q66LE6 1-453, looked up)
# Serine/threonine-protein …: MAGAGGGGCPAGGNDFQWCFSQVKGAIDEDVAEADIISTVEFNYSGDLLATGDKGGRVVIFQREQENKSRPHSRGEYNVYSTFQSHEPEFDYLKSLEIEEKINKIRWLPQQNAAHFLLSTNDKTIKLWKISERDKRAEGYNLKDEDGRLRDPFRITALRVPILKPMDLMVEASPRRIFANAHTYHINSISVNSDHETYLSADDLRINLWHLEITDRSFNIVDIKPANMEELTEVITAAEFHPHQCNVFVYSSSKGTIRLCDMRSSALCDRHSKFFEEPEDPSSRSFFSEIISSISDVKFSHSGRYMMTRDYLSVKVWDLNMESRPVETHQVHEYLRSKLCSLYENDCIFDKFECCWNGSDSAIMTGSYNNFFRMFDRDTRRDVTLEASRESSKPRASLKPRKVCTGGKRRKDEISVDSLDFNKKILHTAWHPVDNVIAVAATNNLYIFQDKIN
# Tested on: Hsp90 complexes in K562 cell extract
# Assay: Nano-LC-MS/MS of PU-beads pull-downs
# Assay type: binding
# Settings: for Matched Peptides by Fraction JA05 / Matched Peptides by Fraction JA12 / MAXIMUM matched peptides / Matched Peptides by Fraction JA06 / Matched Peptides by Fraction JA13 / Matched Peptides by Fraction JA03 / Matched Peptides by Fraction JA10: PU-beads pull-down; for Matched Peptides by Fraction JA05: Run1, gel size cut 60-80; for Matched Peptides by Fraction JA12: Run2, gel size cut 60-80; for MAXIMUM matched peptides: maximum over fractions JA01-JA14; for Total fmol: protein isolated in PU-beads pull-downs, Waters Xevo QTof MS; for Matched Peptides by Fraction JA06: Run1, gel size cut 40-60; for Matched Peptides by Fraction JA13: Run2, gel size cut 40-60; for Matched Peptides by Fraction JA03: Run1, gel size cut 110-150; for Matched Peptides by Fraction JA10: Run2, gel size cut 110-150
# How it was run: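 Proteins were identified by data-dependent nano LC-MS/MS (QTof, ESI) and Mascot searching (p<0.05), then reported as spectral counts and coverage via Scaffold. Inputs were PU-bead versus control-bead pull-downs from lysate pre-cleared with control beads overnight at 4 °C, eluted by boiling in 2% SDS.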
Molecule,Matched Peptides by Fraction JA05,Matched Peptides by Fraction JA12,MAXIMUM matched peptides,Total fmol,Matched Peptides by Fraction JA06,Matched Peptides by Fraction JA13,Matched Peptides by Fraction JA03,Matched Peptides by Fraction JA10
B1,18,19,19,15.3092 fmol,,,,
B2,,,18,10.9424 fmol,4,18,,
B3,,,14,3.0039 fmol,,,4,14
B4,14,14,14,13.0274 fmol,,,,
B5,,,10,7.2125 fmol,,,6,10
B6,,,13,6.6247 fmol,13,6,,
B7,,,13,5.9742 fmol,13,10,,
